23 molecules from PubChem BioAssay AID330 (DTP/NCI, 2004) can be followed below.

The list does not hold the whole screen: it gathers tests that were run many times, whatever their T/C, doses with no T/C, and many T/C values between a quarter and a half above the control. Further doses and runs are listed elsewhere. T/C is the treated group as % of the vehicle group. Some doses have a count of surviving animals in place of a T/C: the source holds a T/C of zero for them, seemingly a mark for toxic or unscored doses. Some survivor counts are full or nearly so, which does not show that the dose was tolerated: survival well below the control is almost never listed, so the zero probably covers shortened survival too. Counts of survivors are from the toxicity check (mostly the fifth day) where no day follows; animals may have died later. Schedule codes are those of the source, read here as Q, the interval in days (D) or hours (H), X, the number of doses. Some doses were run more than once; their values stand side by side, smallest first. Where survival is the endpoint, the PubChem record calls one and a half times the control and up active, and a quarter to a half above the control has no call in these data; cut-offs in other NCI protocols can differ. Some T/C values carry the count of animals alive at the toxicity check (mostly the fifth day); where none is given, no animal had died by that day.

The subject of this assay is P388 leukemia ip, CD2F1 mice, survival T/C. In words: NCI In Vivo Anticancer Drug Screen. Data for tumor model P388 Leukemia (intraperitoneal) in CD2F1 (CDF1) mice. Conditions: T/C endpoint: median survival time, higher T/C = longer survival.
Where [1] appears, read: dose: 25.0 mg/kg/injection, schedule: Q01DX009 (ip), vehicle: Klucel (hydroxypropylcellulose) (HPC).
[2] abbreviates: dose: 200.0 mg/kg/injection, schedule: Q01DX009 (ip), vehicle: saline with Tween-80.
Where [3] appears, read: dose: 240.0 mg/kg/injection, schedule: Q01DX005 (ip), vehicle: saline with Tween-80.
[4] abbreviates: dose: 200.0 mg/kg/injection, schedule: Q04DX002 (ip), vehicle: saline with Tween-80.
The mark [5] stands for this setting: dose: 200.0 mg/kg/injection, schedule: Q01DX005 (ip), vehicle: Klucel (hydroxypropylcellulose) (HPC).
The mark [6] stands for this setting: dose: 50.0 mg/kg/injection, schedule: Q01DX005 (ip), vehicle: saline with Tween-80.
Where [7] appears, read: dose: 100.0 mg/kg/injection, schedule: Q01DX005 (ip), vehicle: saline with Tween-80.
Setting [8] is: dose: 200.0 mg/kg/injection, schedule: Q01DX005 (ip), vehicle: saline with Tween-80.

With `Nc1nc(=S)c2ncn(C3CC(O)C(CO)O3)c2[nH]1` (centres undefined), the T/C is 127 % of control (dose: 1.25 mg/kg/injection, schedule: Q01DX009 (ip), vehicle: Klucel (hydroxypropylcellulose) (HPC)); 136 % of control (dose: 2.5 mg/kg/injection, schedule: Q01DX009 (ip), vehicle: Klucel (hydroxypropylcellulose) (HPC)); 136 % of control (dose: 5.0 mg/kg/injection, schedule: Q01DX009 (ip), vehicle: Klucel (hydroxypropylcellulose) (HPC)); 136 % of control (dose: 6.25 mg/kg/injection, schedule: Q01DX009 (ip), vehicle: saline sonified); 145 % of control (dose: 12.5 mg/kg/injection, schedule: Q01DX009 (ip), vehicle: saline sonified); 137 % of control (dose: 12.5 mg/kg/injection, schedule: Q01DX009 (ip), vehicle: saline with Tween-80). Also, the T/C runs as follows: under setting [1], 140 % of control; (dose: 25.0 mg/kg/injection, schedule: Q01DX009 (ip), vehicle: saline with Tween-80) 137 % of control; (dose: 50.0 mg/kg/injection, schedule: Q01DX005 (ip), vehicle: saline) 127 % of control; (dose: 50.0 mg/kg/injection, schedule: Q01DX009 (ip), vehicle: saline) 133 % of control; (dose: 100.0 mg/kg/injection, schedule: Q01DX005 (ip), vehicle: saline) 125 and 143 % of control. Also, the survivor count (dose: 200.0 mg/kg/injection, schedule: Q01DX009 (ip), vehicle: Klucel (hydroxypropylcellulose) (HPC)) is given as 5 of 6.

As to `N#CCCNCCC[Si]12OCCN(CCO1)CCO2`, the survivor count (dose: 50.0 mg/kg/injection, schedule: Q01DX005 (ip), vehicle: Klucel (hydroxypropylcellulose) (HPC)) is 6 of 6 and the survivor count (dose: 100.0 mg/kg/injection, schedule: Q01DX005 (ip), vehicle: Klucel (hydroxypropylcellulose) (HPC)) is 6 of 6.

Consider `Cc1cc(=O)n2c(n1)Nc1ccc(Cl)cc1C2`, for which, under setting [2], the survivor count is on record as 6 of 6.

Turning to `CCC[CH2][Sn]([CH2]CCC)([CH2]CCC)[CH2]CCCNCCCN(C)C`, under “dose: 200.0 mg/kg/injection, schedule: Q01DX009 (ip), vehicle: saline”, the survivor count is given as 0 of 6.

With `CC1(C)OC(=O)ON(C(c2ccccc2)c2ccccc2)C1=O`, the survivor count under setting [3] is on record as 4 of 6.

Take `O=C(O)c1cccnn1`: the survivor count under setting [2] is given as 1 of 6.

Consider `Cc1cc2c(cc1C)NC1=C(N2)OC(c2ccccc2C)C1=O` (centres undefined), for which, under “dose: 240.0 mg/kg/injection, schedule: Q01DX005 (ip), vehicle: Klucel (hydroxypropylcellulose) (HPC)”, the survivor count is reported as 4 of 6.

On to `C=C1CC2(CCS(=O)(=O)c3ccccc32)OC1=O` (centres undefined), for which the survivor count is, setting by setting: (dose: 100.0 mg/kg/injection, schedule: Q04DX002 (ip), vehicle: saline with Tween-80) 4 of 6; under setting [4], 0 of 6; (dose: 400.0 mg/kg/injection, schedule: Q04DX002 (ip), vehicle: saline with Tween-80) 0 of 6.

Regarding `Cc1ccc(-c2csc(=NCCc3ccccc3)n2-c2ccc(C)cc2)cc1`, the survivor count under setting [4] was 6 of 6.

In the case of `O=C(N/N=C/c1cc(Br)cc(Br)c1[O-])c1ccccc1.O=C(N/N=C/c1cc(Br)cc(Br)c1[O-])c1ccccc1.[Co+2]`, the survivor count reads like this: (dose: 200.0 mg/kg/injection, schedule: Q01DX001 (ip), vehicle: saline with Tween-80) 6 of 6; (dose: 400.0 mg/kg/injection, schedule: Q01DX001 (ip), vehicle: saline with Tween-80) 6 of 6.

For the molecule `COC(=O)Nc1nc2c(OC)c(OC)c(OC)cc2[nH]1`, for the setting “dose: 200.0 mg/kg/injection, schedule: Q01DX005 (ip), vehicle: other”, the survivor count was 6 of 6.

As for `CCN(CC)CCCC(C)NC(=O)c1ccc2c(c1O)C(=O)c1ccccc1C2=O` (centres undefined), where the note is “dose: 5.0 mg/kg/injection, schedule: Q01DX009 (ip), vehicle: water”, the T/C is 125 % of control. For the same molecule, the survivor count is given as 4 of 6 (dose: 40.0 mg/kg/injection, schedule: Q01DX009 (ip), vehicle: water) and 0 of 6 (dose: 80.0 mg/kg/injection, schedule: Q01DX009 (ip), vehicle: water).

With `[Cl][Pt][Cl].[NH-]C(CO)C(=O)O` (centres undefined), the T/C is, setting by setting: (dose: 6.25 mg/kg/injection, schedule: Q01DX005 (ip), vehicle: water) 125 % of control; (dose: 12.5 mg/kg/injection, schedule: Q01DX005 (ip), vehicle: water) 125 % of control; (dose: 25.0 mg/kg/injection, schedule: Q01DX005 (ip), vehicle: water) 127 % of control; (dose: 50.0 mg/kg/injection, schedule: Q01DX005 (ip), vehicle: water) 142 % of control. For the same molecule, the survivor count (dose: 100.0 mg/kg/injection, schedule: Q01DX005 (ip), vehicle: water) is 0 of 6 and 3 of 6.

As for `CC1CCC(C(=O)C(Cl)C(Cl)C2CCCCC2)CC1` (centres undefined), under setting [5], the survivor count is 6 of 6.

As to `C=C(CN(C)C)C(=O)c1ccc(Oc2ccccc2)cc1`, the survivor count by setting is: (dose: 7.5 mg/kg/injection, schedule: Q01DX005 (ip), vehicle: saline) 1 of 6; (dose: 15.0 mg/kg/injection, schedule: Q01DX005 (ip), vehicle: saline) 0 of 6; (dose: 30.0 mg/kg/injection, schedule: Q01DX005 (ip), vehicle: saline) 0 of 6; (dose: 60.0 mg/kg/injection, schedule: Q01DX005 (ip), vehicle: saline) 0 of 6; (dose: 120.0 mg/kg/injection, schedule: Q01DX005 (ip), vehicle: saline) 0 of 6; (dose: 240.0 mg/kg/injection, schedule: Q01DX005 (ip), vehicle: saline) 0 of 6.

With `CCN1CCCC(Nc2cc(C)nc(Nc3nc4cc(Cl)c(Cl)cc4[nH]3)n2)C1` (centres undefined), the survivor count under setting [1] is reported as 2 of 6 and the survivor count (dose: 50.0 mg/kg/injection, schedule: Q01DX009 (ip), vehicle: Klucel (hydroxypropylcellulose) (HPC)) is listed as 0 of 6.

Turning to `NC(N)=N/N=C/c1c2ccccc2cc2ccccc12`, the T/C runs as follows: (dose: 50.0 mg/kg/injection, schedule: Q01DX005 (ip), vehicle: saline with Tween-80, evaluated on day 20) 111 % of control; (dose: 50.0 mg/kg/injection, schedule: Q01DX005 (ip), vehicle: saline with Tween-80, evaluated on day 30) 116 % of control [5 of 6 alive]. Also, the survivor count was 0 of 6 and 3 of 6 under setting [6]; 3 of 6 under setting [7]; 0 of 6 under setting [8].

For the molecule `Nc1cc2c(cn1)[nH]c1ccccc12`, the survivor count was 1 of 4 (dose: 200.0 mg/kg/injection, schedule: Q01DX009 (ip), vehicle: other) and 0 of 6 under setting [3].

Regarding `c1ccc2nc(C[n+]3cccc4ccccc43)ccc2c1`, the survivor count is, setting by setting: under setting [6], 0 of 5; under setting [7], 0 of 5; under setting [8], 0 of 5.

As to `O=c1cccccc1Cl`, under setting [2], the survivor count was 0 of 6.

As for `CC12C(=O)OC(=O)C1(C)C1CCC2O1` (centres undefined), the survivor count is listed as 1 of 6 (dose: 3.75 mg/kg/injection, schedule: Q01DX005 (ip), vehicle: saline with Tween-80); 0 of 6 (dose: 7.5 mg/kg/injection, schedule: Q01DX005 (ip), vehicle: saline with Tween-80); 0 of 6 (dose: 15.0 mg/kg/injection, schedule: Q01DX005 (ip), vehicle: saline with Tween-80); 0 of 6 (dose: 30.0 mg/kg/injection, schedule: Q01DX005 (ip), vehicle: saline with Tween-80); 0 of 6 (dose: 60.0 mg/kg/injection, schedule: Q01DX005 (ip), vehicle: saline with Tween-80); 0 of 6 (dose: 120.0 mg/kg/injection, schedule: Q01DX005 (ip), vehicle: saline with Tween-80). Moreover, the survivor count under setting [3] is 0 of 6.

Regarding `COc1ccc2c(c1)CC[n+]1c-2ccc2c1CCC2=O`, the T/C under setting [7] was 126 % of control and the T/C under setting [8] was 125 % of control.

Consider `CSC(=O)NC(=O)NC(=O)c1ccc([N+](=O)[O-])cc1`, for which, under setting [5], the survivor count was 6 of 6.
